SMILES strings stand for the structures. The list shows a part of the results. Shown are side measurements of this screen, not its main read-out; they come without a call. Most of these compounds were active or inconclusive in the main read-out, so they are no random draw. Words in brackets tell the shape of the fitted curve; partial curves, single points and poor fits give uncertain potencies.

AC50 data for 64 molecules are collected here from PubChem BioAssay AID493014 (National Center for Advancing Translational Sciences (NCATS), 2011).

This assay in a line: qHTS Assay to Find Inhibitors of Chronic Active B-Cell Receptor Signaling. As to conditions: ABC-DLBCL IkBa-CBG/CBR reporter, luminescence ratio (green luciferase fused to IkBa over red control in TMD8 lymphoma cells), 4 h. The method, boiled down:
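Compounds up to 46 uM were incubated four hours with TMD8 cells whose green CBG68 luciferase is fused to IkappaBalpha; red CBR luminescence normalised the signal, and concentration-effect curves were fitted to fusion, red and ratio data.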
On the technique in general: qHTS replaces the single test concentration by a dilution series.

Where [1] appears, read: measured here: CBR red luminescence, cell number.
Where [2] appears, read: measured here: IkBa-CBG green luminescence.

For orientation: AC50 means the midpoint of the concentration-response curve, whichever way the signal moves. `COc1ccccc1N1CCN(C(=O)c2ccc(-c3ccc(Cl)cc3)o2)CC1`: the AC50 is 18.4 µM [rising, single point] under setting [1] and 18.4 µM [falling, single point] under setting [2].
For the molecule `COc1ccc(O)c(/C=N/Nc2nc(Nc3ccccc3)nc(-n3nc(C)cc3C)n2)c1`, under setting [1], the AC50 was 1.78 µM [falling, partial curve].
On to `NC(=O)c1cc2cc(Br)ccc2oc1=NCc1ccccc1`, for which the AC50 under setting [1] is 0.517 µM [falling, full curve, poor fit].
Still for that read-out and setting: in the case of `CC1CCc2cc(F)ccc2N1C(=O)CCl` (configuration not stated) it was 1 µM [falling, single point]; in that of `Cn1cc(/C=C2\SC(=S)N(NC(=O)c3ccccc3)C2=O)c2ccccc21`, 8.2 µM [falling, partial curve].
The same measure, in the same setting: as for `Cc1ccc(NC(=O)C2CCC(CNC(=O)[C@@H]3Cc4ccccc4CN3)CC2)cc1` (some centres not stated), the figure is 4.47 µM [falling, partial curve].
Still for that read-out and setting: in the case of `COc1ccc(C2C(C(=O)c3cccs3)=C(O)C(=O)N2c2cccc(C)n2)cc1` (configuration not stated) it was 35.5 µM [falling, single point]; in that of `CCCCCN1CN(S(=O)(=O)c2cccs2)c2nc3ccccc3nc21`, 12.6 µM [falling, partial curve, poor fit]; in that of `O=C(NC(NC(=S)Nc1ccc(Cl)cc1)C(Cl)(Cl)Cl)c1ccco1` (configuration not stated), 29.1 µM [falling, single point].
For the molecule `O=C(NCc1cccc(Cl)c1)c1cccc(OC2CCN(C(=O)C3CC3)CC2)c1`, under setting [1], the AC50 is 8.91 µM [falling, partial curve].
Still for that read-out and setting: in the case of `Cc1nc2c(-c3ccc(F)cc3)c(C)nn2c(C)c1CCC(=O)N1CCN(c2ccc(F)cc2)CC1` it was 32.6 µM [rising, single point]; in that of `COC(=O)c1cc(=O)n(Cc2ccc(F)cc2)c(=Nc2ccccc2)s1`, 2 µM [falling, partial curve, poor fit].
Same read-out and setting: as for `C=CCc1ccc(OCCCCOc2ccc(C(=O)O)cc2)c(OC)c1`, the figure is 0.316 µM [falling, full curve]; as for `CC(=O)c1cc(-c2ccccc2)n(CCC(=O)NCCc2ccccc2)c1C`, 14.1 µM [rising, partial curve, poor fit].
Consider `CCOc1ccccc1Nc1nnc(SCC(=O)NC(=O)c2cccn2C)s1`, for which the concentration at half-maximal activity (AC50) under setting [1] was 16.4 µM [falling, partial curve].
On the same count and under the same terms, as for `NC1=NC[C@H](CC2CCCCC2)N1CCc1cc(C(F)(F)F)cc(C(F)(F)F)c1`, the figure is 25.1 µM [falling, single point].
Still for that read-out and setting: as for `C/C(=N\NC(=O)c1ccccn1)C12CC3CC(CC(C3)C1)C2`, the figure is 35.5 µM [falling, single point]; as for `C=CCn1c(SCC(=O)Nc2cccc3ccccc23)nc(O)c(CC)c1=O`, 8.2 µM [falling, partial curve, poor fit]; as for `CC(=O)Nc1ccc(C(=O)c2ccccc2)cc1`, 14.1 µM [falling, single point].
Still for that read-out and setting: as for `CCOC(=O)c1cc(-c2ccccc2)n(CCCC(=O)Nc2ccc(C)cc2Cl)c1C`, the figure is 25.1 µM [rising, partial curve].
Take `COc1ccc2cc1Oc1ccc(cc1)C[C@H]1c3c(cc(OC)c4c3Oc3c(ccc5c3[C@H](C2)N(C)CC5)O4)CCN1C`: the AC50 under setting [1] was 6.51 µM [falling, single point].
The same measure, in the same setting: as for `COc1cccc(/C=C2/SC(=S)N(CC(=O)NC3C=CS(=O)(=O)C3)C2=O)c1` (configuration not stated), the figure is 15.8 µM [falling, single point]; as for `C[C@H](NC(=O)c1nc[nH]c1C(=O)NCC(=O)OCc1ccccc1)c1ccccc1`, 1.12 µM [rising, full curve, poor fit].
Still for that read-out and setting: as for `CCSc1oc(-c2ccco2)nc1S(=O)(=O)c1ccc(F)cc1`, the figure is 8.2 µM [falling, partial curve, poor fit]; as for `COc1ccc(N2CCN(C(=O)C3Cc4ccccc4CN3C(=O)c3ccco3)CC2)cc1` (configuration not stated), 6.51 µM [rising, single point].
Still for that read-out and setting: in the case of `Cc1ccc(CNc2ncnc3c2cnn3-c2ccc(C)cc2C)cc1` it was 7.08 µM [falling, partial curve]; in that of `CN(Cc1ccccc1)C(=O)CC(c1ccccc1)c1cc(Cl)ccc1O` (configuration not stated), 17.8 µM [falling, single point]; in that of `Cc1ccc(NC(=S)N(C)C(c2ccccc2)c2ccccc2)cc1C`, 10 µM [falling, partial curve, poor fit].
Consider `Brc1ccccc1-n1nnc(-c2cccnc2)n1`, for which the AC50 under setting [1] is 35.5 µM [rising, partial curve, poor fit].
Still for that read-out and setting: in the case of `CN(C(=O)c1ccc(COc2ccccc2Br)o1)c1ccccc1` it was 35.5 µM [falling, single point]; in that of `Cc1ccc(C2CC(=O)NC(SCc3ccccc3)=C2C#N)o1` (configuration not stated), 17.8 µM [falling, single point]; in that of `COC(=O)c1ccc(C)c(NC(=O)C2COc3ccccc3O2)c1` (configuration not stated), 0.00461 µM [rising, full curve, poor fit].
Still for that read-out and setting: as for `COc1ccc(CC(=O)Nc2ccc(C(=O)Nc3nccs3)cc2)cc1OC`, the figure is 22.4 µM [falling, partial curve, poor fit]; as for `COc1ccccc1-c1sc2cc3c(cc2c1-c1ccc2c(c1)OCO2)OCO3`, 0.58 µM [rising, full curve, poor fit].
With `COC(=O)CC(NS(=O)(=O)c1cccs1)c1cccc2ccccc12` (configuration not stated), the AC50 under setting [1] was 6.51 µM [rising, partial curve, poor fit].
Regarding `CSc1sccc1/C=N/O`, under setting [1], the AC50 is 0.316 µM [rising, full curve, poor fit].
Same read-out and setting: in the case of `CCc1cc2c(=O)n(CC(C)C)cnc2s1` it was 14.6 µM [rising, partial curve, poor fit].
On the same count and under the same terms, in the case of `CCc1ccc(Oc2coc3cc(OCC(=O)Nc4cc(C)ccc4C)ccc3c2=O)cc1` it was 3.66 µM [rising, full curve, poor fit]; in that of `O=C(NCc1ccccc1Cl)C1CCCN(c2ncnc3c2nc2n3CCCCC2)C1` (configuration not stated), 4.47 µM [rising, partial curve, poor fit]; in that of `CCOc1cc(CNCCO)cc(Br)c1OCc1cccs1`, 20 µM [falling, single point].
Same read-out and setting: as for `N#Cc1c(Sc2ncc(C(F)(F)F)cc2Cl)nsc1C/C=N\OCc1c(F)cccc1Cl`, the figure is 6.51 µM [falling, single point]; as for `CCCCC(CC)COC1(c2ccccc2)OC(=O)c2ccccc21` (configuration not stated), 3.16 µM [rising, single point]; as for `NNC(=S)Nc1ccccc1Cl`, 10 µM [falling, partial curve].
With `c1ccc(Cn2nnc(-c3ccccc3)n2)cc1`, the AC50 under setting [1] is 2.91 µM [rising, full curve, poor fit].
On the same count and under the same terms, in the case of `O=C(CSc1nccn1-c1cccc(Cl)c1)NO` it was 5.62 µM [falling, partial curve, poor fit]; in that of `O=C(Nc1cccc(Cl)c1)c1ccc(NCCCN2CCOCC2)c([N+](=O)[O-])c1`, 10 µM [falling, partial curve].
Same read-out and setting: as for `Cc1ccc(S(=O)(=O)N/N=C/c2cc(Br)ccc2O)cc1`, the figure is 3.98 µM [falling, partial curve, poor fit].
Same read-out and setting: in the case of `O=C(O)c1ccc(N2C(=O)/C(=C\c3ccccc3)N=C2c2ccccc2)cc1` it was 11.2 µM [falling, partial curve, poor fit].
Turning to `Cc1ccc(CNC(=O)c2cccc3c2C(=O)c2ccc(N4CCOCC4)cc2S3(=O)=O)cc1`, the AC50 under setting [1] is 29.1 µM [falling, single point].
The same measure, in the same setting: in the case of `CCn1nnnc1SCCSc1nnnn1CC` it was 9.2 µM [rising, partial curve, poor fit]; in that of `Cc1nc2scc(-c3ccccc3)c2c(=O)n1N=C1C=CC(=O)C=C1`, 11.2 µM [falling, partial curve, poor fit]; in that of `O=C(Nc1ccc(Oc2cccnc2)cc1)c1ccccc1F`, 35.5 µM [falling, single point].
On the same count and under the same terms, in the case of `COC(=O)c1sccc1N/N=C/c1cccc(OC)c1O` it was 0.366 µM [falling, full curve, poor fit].
Same read-out and setting: in the case of `Cc1ccc(-c2csc(NC(=O)CSc3ncn(-c4ccccc4)n3)n2)cc1` it was 6.51 µM [rising, single point].
Regarding `c1csc(-c2ccc(N3CCOCC3)nn2)c1`, under setting [1], the AC50 was 0.562 µM [rising, full curve, poor fit].
On the same count and under the same terms, as for `O=C(Nc1nc(COc2ccccc2)cs1)C12CC3CC(CC(C3)C1)C2`, the figure is 14.6 µM [falling, partial curve]; as for `COc1ccc(-c2nc3sc(CCNC(=O)C(=O)Nc4ccc(C)c(F)c4)c(C)n3n2)cc1`, 15.8 µM [falling, single point].
On the same count and under the same terms, in the case of `CCCCOc1ccc(C(=O)NCCc2ccccc2)cc1` it was 2.24 µM [rising, full curve, poor fit].
With `COc1cc(-c2noc(C)c2C#Cc2ccc(N)cc2)cc(OC)c1OC`, the AC50 by setting is: under setting [1], 2.82 µM [rising, full curve, poor fit]; under setting [2], 3.98 µM [falling, full curve].
Turning to `CC(=O)c1sc(Nc2nc(C)cc(C)n2)nc1C`, under setting [1], the AC50 is 7.31 µM [falling, single point].
Same read-out and setting: as for `COc1cc(OC)cc(C(=O)Nc2ccc3c(c2)OCCO3)c1`, the figure is 14.1 µM [falling, partial curve]; as for `CCn1cc(C(=O)O)c(=O)c2cc(F)c(N3CCN(C(=S)NC(=O)c4ccccc4)CC3)cc21`, 35.5 µM [rising, single point].
Same read-out and setting: in the case of `O=C(NCc1ccc2c(c1)OCO2)c1ccc2c(c1)C(=O)N(Cc1cccnc1)C2=O` it was 16.4 µM [rising, single point].
As to `CC(=O)C1=C(c2ccc(Cl)c(Cl)c2)N(C(C)=O)n2cnnc2S1`, the AC50 runs as follows: under setting [1], 0.501 µM [falling, full curve, poor fit]; under setting [2], 35.5 µM [falling, single point].
